Measurements: article PMC6005158
Results are given in words; binding and its absence hold for the method and conditions named. Binding seen in cells or lysates may run through a third protein. Some entries that bind do so weakly or less than the wild type. Where a sequence is shown, tags or fusion partners need not be part of it.

Protein sequences, listed by entry. Tags and fused reporters are not part of them. Lines headed by an entry give the natural chain unless they say otherwise; changes in a name come on top. Chains listed by the source or under a name are the forms on record and can include a tag or linker.
DrDDX41-(ΔC + ΔHELICc) (1–411 amino acids, lacking C-terminal region and HELICc domain), Flag-tagged (A0AC58H8X8, form named): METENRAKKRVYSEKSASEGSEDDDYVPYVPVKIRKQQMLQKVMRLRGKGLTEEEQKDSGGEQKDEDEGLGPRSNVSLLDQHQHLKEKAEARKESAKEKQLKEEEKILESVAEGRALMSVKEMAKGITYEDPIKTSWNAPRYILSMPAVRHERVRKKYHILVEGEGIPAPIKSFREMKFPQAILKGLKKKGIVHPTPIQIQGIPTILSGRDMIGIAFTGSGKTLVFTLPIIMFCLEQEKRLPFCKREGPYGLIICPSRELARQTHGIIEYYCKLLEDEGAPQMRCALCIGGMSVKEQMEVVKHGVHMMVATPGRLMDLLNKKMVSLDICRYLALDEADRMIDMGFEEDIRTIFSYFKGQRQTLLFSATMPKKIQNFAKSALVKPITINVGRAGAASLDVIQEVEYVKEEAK
DrDDX41-ΔN (177–613 amino acids, lacking N-terminal region), Flag-tagged (A0AC58H8X8, form named): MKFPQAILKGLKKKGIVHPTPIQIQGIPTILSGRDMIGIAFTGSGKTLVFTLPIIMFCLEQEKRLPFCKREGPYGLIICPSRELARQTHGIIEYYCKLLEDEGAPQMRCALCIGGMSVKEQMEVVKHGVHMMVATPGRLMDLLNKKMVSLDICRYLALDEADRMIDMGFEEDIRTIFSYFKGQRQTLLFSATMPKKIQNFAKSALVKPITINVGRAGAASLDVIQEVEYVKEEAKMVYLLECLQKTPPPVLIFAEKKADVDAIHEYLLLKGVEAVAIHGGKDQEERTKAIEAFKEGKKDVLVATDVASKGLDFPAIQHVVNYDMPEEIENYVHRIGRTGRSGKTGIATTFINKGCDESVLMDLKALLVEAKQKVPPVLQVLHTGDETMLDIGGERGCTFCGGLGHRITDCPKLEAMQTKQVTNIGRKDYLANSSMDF
DrDDX41-ΔC (1–558 amino acids, lacking C-terminal region), Flag-tagged (A0AC58H8X8, form named): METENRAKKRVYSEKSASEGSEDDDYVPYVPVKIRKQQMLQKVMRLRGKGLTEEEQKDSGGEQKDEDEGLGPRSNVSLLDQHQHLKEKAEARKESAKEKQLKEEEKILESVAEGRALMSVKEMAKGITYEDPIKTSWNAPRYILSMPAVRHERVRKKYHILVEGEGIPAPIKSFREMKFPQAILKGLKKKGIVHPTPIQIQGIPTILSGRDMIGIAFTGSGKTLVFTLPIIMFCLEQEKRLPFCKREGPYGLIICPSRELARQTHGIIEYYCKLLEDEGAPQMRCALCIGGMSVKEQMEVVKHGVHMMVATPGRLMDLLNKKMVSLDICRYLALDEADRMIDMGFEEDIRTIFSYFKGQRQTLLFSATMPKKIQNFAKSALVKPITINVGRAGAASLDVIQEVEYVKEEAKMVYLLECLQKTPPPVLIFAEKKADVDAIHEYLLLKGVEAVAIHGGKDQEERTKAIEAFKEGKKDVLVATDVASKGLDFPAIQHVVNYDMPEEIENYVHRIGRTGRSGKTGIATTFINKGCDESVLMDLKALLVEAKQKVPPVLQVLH
DrDDX41-(ΔN + ΔDEADc) (412–613 amino acids, lacking N-terminal region and DEADc domain), Flag-tagged (A0AC58H8X8, form named): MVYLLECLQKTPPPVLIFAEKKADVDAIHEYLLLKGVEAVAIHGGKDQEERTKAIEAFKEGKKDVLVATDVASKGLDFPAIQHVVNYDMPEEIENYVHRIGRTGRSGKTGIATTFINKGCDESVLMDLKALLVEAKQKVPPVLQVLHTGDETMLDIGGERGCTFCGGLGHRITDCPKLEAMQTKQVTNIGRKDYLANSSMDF

Molecular target: T1, Danio rerio STING (DrSTING), Myc-tagged (zebrafish (Danio rerio)) (UniProt E7F4N7)
T1 sequence: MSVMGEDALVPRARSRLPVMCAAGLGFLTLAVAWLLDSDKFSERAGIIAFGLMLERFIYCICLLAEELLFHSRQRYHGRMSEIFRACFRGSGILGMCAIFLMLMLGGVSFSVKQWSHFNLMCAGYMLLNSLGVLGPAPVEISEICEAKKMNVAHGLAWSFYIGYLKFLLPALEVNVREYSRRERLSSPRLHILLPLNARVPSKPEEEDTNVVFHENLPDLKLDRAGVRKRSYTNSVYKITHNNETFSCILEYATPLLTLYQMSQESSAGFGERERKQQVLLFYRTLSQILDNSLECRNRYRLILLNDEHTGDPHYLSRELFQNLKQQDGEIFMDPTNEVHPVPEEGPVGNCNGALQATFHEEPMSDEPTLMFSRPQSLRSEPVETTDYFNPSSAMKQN
Assay: co-IP; HEK293T co-transfected with Flag-DrDDX41 or its mutants and Myc-DrSTING (1:1) for 24 h, with or without poly(dA:dT) (1 µg/mL, 6 h); lysis in 20 mM Tris-HCl pH 7.5, 150 mM NaCl, 1 mM EDTA, 1% Triton X-100; lysates immunoprecipitated with anti-Myc mAb and protein A-agarose, blotted with anti-Flag and anti-Myc

| binding | Substance |
| --- | --- |
| binds | DrDDX41-(ΔC + ΔHELICc) (1–411 amino acids, lacking C-terminal region and HELICc domain), Flag-tagged (from UniProt A0AC58H8X8 1-411) (domain or fragment) |
| binds | DrDDX41-ΔN (177–613 amino acids, lacking N-terminal region), Flag-tagged (from UniProt A0AC58H8X8 177-613) (domain or fragment) |
| binds | DrDDX41-ΔC (1–558 amino acids, lacking C-terminal region), Flag-tagged (from UniProt A0AC58H8X8 1-558) (domain or fragment) |
| no binding | DrDDX41-(ΔN + ΔDEADc) (412–613 amino acids, lacking N-terminal region and DEADc domain), Flag-tagged (from UniProt A0AC58H8X8 412-613) (domain or fragment) |
